# Experimental data taken from the supplement of paper PMC10338343.
# ± gives the standard deviation. This is a selection; strong and weak results do not stand in their true shares. The uncertainty is large for many entries.
# Tested on: MILI (PIWIL2) piRISC loaded with piRNA #2 (26 nt)
# Experiment: pre-steady-state target cleavage rate (min^-1); MIWI and MILI are mouse PIWI proteins and EfPiwi is from a freshwater sponge; tags in brackets are library labels; higher = faster piRNA-guided slicing of the target
# Details: guide: piRNA #2 5'p-UUAGGUAACCCAGUAGAUCCAGAGGA; auxiliary factor: 500 nM mouse GTSF1
# Method in brief: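 The pre-steady-state cleavage rate was obtained by Cleave-'n-Seq with a burst-and-steady-state fit. A transcribed, DNA-blocked target RNA library (0.1 nM) was mixed with 1 nM active affinity-purified piRISC carrying one synthetic guide, with or without 500 nM GTSF1 partner protein, in HEPES–potassium acetate buffer at 33 °C for 0–8 or 0–960 min. Uncleaved targets were sequenced and normalised to depth and to weakly complementary targets, with three trials pooled and k3 capped at 0.0001 min^-1.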
row,Sequence,pre-steady-state target cleavage rate
1,CUUAAGGAGUGGAGUCUACUGGGUUACCUAA,0.00184 ± 0.0056
2,CUUAAGGAGACGAUCUACAGGGUUACCUUA,0.00278 ± 0.0056
3,CUUAAGGAGUGGAUCUACUGCGUUACCAAA,0.000826 ± 0.018
4,CUUAAGGAGACCUAGAUCUGGGUUACCUGA,0.000141 ± 0.074
5,CUUAAGGAGACCUAGAACAGGGUUACCUUA,0.000318 ± 0.021
6,CUUAAGGAGUGGAACUACUGGGUUACCAAA,0.000388 ± 0.031
7,CUUAAGGAGAGGAUCUACUGGGUUACCUGAA,0.00369 ± 0.0055
8,CUUAAGGAGACGAUCAACUGGGUUACCUUA,0.000875 ± 0.0081
9,CUUAAGGAGACCAUGUACUGGGUUACCUAA,0.001 ± 0.0083
10,CUUAAGGAGCGGAUCUACUGGGUUACCUAA,0.00694 ± 0.01
11,CUUAAGGAGUGCAUCUACUGGGAUACCUAA,0.000781 ± 0.015
12,CUUAAGGUCUGGAUCUACUGUGGUUACCUAA,0.000957 ± 0.0082
13,CUUAAGGAGACCUACUACGGGUUACCUAA,0.000322 ± 0.025
14,CUUAAGGUCUGGAAGAACUGGGUUACCUAA,0.00324 ± 0.011
15,CUUAUCCUCUGGAUCUACUCGGUUACCUUA,0.003 ± 0.0052
16,CUUAAGGUCUGGAUCAUACUGGGUUACCUAA,0.000993 ± 0.0058
17,CUUAAGGAGACCAUCUAAUGGGUUACCUAA,0.000664 ± 0.013
18,CUUAUCCUCUGGAUCUACUGGCAUACCUAA,0.000228 ± 0.016
19,CUUAAGGAGUGGAUCUACUGGGAUACCUUA,0.00157 ± 0.0069
20,CUUAAGGAGUGGAUCUACUGGUUACCUAA,0.00125 ± 0.011
21,CUUAAGGAGACCUUCUACUGGGUUACCUAC [g2:g17:cont:t1C],0.000722 ± 0.017
22,CUUAAGGAGAGGAUCUACUGUGGUUACCUAA,0.00104 ± 0.01
23,CUUAAGGAGACGAUCUACUGGGUGUACCUAA,0.000832 ± 0.011

row,Sequence,pre-steady-state target cleavage rate
1,CUUAAGGUCUGGAUCUACUGGGUAACGUAA,0.00171 ± 0.0069
2,CUUAAGGAGAGGAUCUUCAGGGUUACCUAA,0.00103 ± 0.01
3,CUUAAGGAGAGGUUCUACUCGGUUACCUAA,0.000778 ± 0.0088
4,CUUAAGGAGACGAUCUCACUGGGUUACCUAA,0.00015 ± 0.048
5,CUUAAGGAGACGAUCUACUGGGUUGACCUAA,0.000876 ± 0.0064
6,CUUACCCUCUGGAUCUACUGGGUUACCUAA,0.11 ± 0.016
7,CUUAAGGACUGGAUCUACUGGGAUUCCUAA,0.000166 ± 0.039
8,CUUAAGGAGACCAUCUACUGGAUUACCUAA,0.00106 ± 0.007
9,CUUAAGGAGACCUUCUAGUGGGUUACCAAA,0.000651 ± 0.022
10,CUUAAGGAGAGGUACUACUGGGUUACCUAA,0.00107 ± 0.0085
11,CUUAAGGAGACCAACUUCUGGGUUACCUAA,0.000828 ± 0.011
12,CUUAAGGAGACCUUCUACAGGGUUACCUAA,0.00113 ± 0.0049
13,CUUAAGGAGACCUAGUACUGCGUUACCUUA,0.000224 ± 0.029
14,CUUAAGGAGUGGAUCUACUGAGGUUACCUAA,0.0004 ± 0.013
15,CUUAAGGAGAGGAUCUACUGCGUUUCCUAA,0.00133 ± 0.0064
16,CUUAAGGAGACCUAGUACUGGGUUCACCUAA,0.00031 ± 0.027
17,CUUAAGGAGACCUAGAUCCUGGGUUACCUAA,0.000411 ± 0.021
18,CUUAAGGACUGGUUCUACUGGGAUACCUAA,0.00377 ± 0.011
19,CUUAACCUCUGGAUCUACUGGCUUACCAAA,0.000518 ± 0.013
20,CUUAAGGAGACCAUCUACUGGUUUACCUAA,0.000718 ± 0.0095
21,CUUAUCCUCUGGAUCUACUGGAUUACCUAA,0.0307 ± 0.0083
22,CUUAAGGAGACGAUCUACUGGGUUACCUAC [g2:g19:cont:t1C],0.00107 ± 0.013
23,CUUAAGGACUGGAUCUACUGCGUUACCAAA,0.000569 ± 0.03

# Some values from the entries so far:
# CUUAAGGAGACCAACUUCUGGGUUACCUAA – pre-steady-state target cleavage rate: 0.000828 ± 0.011
# CUUAAGGAGAGGUUCUACUCGGUUACCUAA – pre-steady-state target cleavage rate: 0.000778 ± 0.0088
# CUUAAGGAGACCUAGAUCCUGGGUUACCUAA – pre-steady-state target cleavage rate: 0.000411 ± 0.021
# CUUAAGGAGACCUUCUAGUGGGUUACCAAA – pre-steady-state target cleavage rate: 0.000651 ± 0.022

# (listing goes on)

row,Sequence,pre-steady-state target cleavage rate
1,CUUAAGGAGUGGAUGUACUGGGUUAGCUAA,0.00198 ± 0.013
2,CUUAACCUCUGGAUCUACUCGGUUACCUUA,0.00189 ± 0.0079
3,CUUAAGGAGACGAUCUGCUGGGUUACCUAA,0.00247 ± 0.0045
4,CUUAAGGAGACCAUCUACUGGGUUACGUUA,0.000277 ± 0.035
5,CUUAAGGAGACCUUCUACUGGGUUACCUAA [g2:g17:cont:t1A],0.00117 ± 0.0051
6,CUUAAGCUCAGGAUCUACUCGGUUACCUAA,0.000954 ± 0.017
7,CUUAAGGAGUGGAUCUACUGUGGUUACCUAA,0.000924 ± 0.01
8,CUUAAGGAGACCUAGAACUGGGUCACCUAA,0.000262 ± 0.026
9,CUUAAGGAGAGGAUCUACUGGGUUACGUAA,0.00115 ± 0.011
10,CUUAAGGAGACCUACUACUGGGUGACCUAA,0.000154 ± 0.061
11,CUUAAGGAGACCUUCUACUGCGUUACCUUA,0.000807 ± 0.022
12,CUUAAGGACUGGAUCUACGGGGUUACCUAA,0.0466 ± 0.013
13,CUUAAGGAGACGAUCCUACUGGGUUACCUAA,0.00105 ± 0.01
14,CUUAAGGACUGGAUGUACUGGGUUUCCUAA,0.00686 ± 0.01
15,CUUAAGGUCUGGAUCUAACUGGGUUACCUAA,0.000306 ± 0.012
16,CUUAAGGAGAGGAACUACUGCGUUACCUAA,0.000562 ± 0.016
17,CUUAAGGAGUGGAUCUCACUGGGUUACCUAA,0.000181 ± 0.022
18,CUUAAGGAGACCUUCUACUGGGAUACCUUA,0.000228 ± 0.026
19,CUUAUCCACUGGAUCUACUGGCUUACCUAA,0.000737 ± 0.016
20,CUUAAGGUCUCGAUCUACUGGCUUACCUAA,0.000919 ± 0.016
21,CUUAAGGAGUGGAUCUACAGGGUUACGUAA,0.00165 ± 0.0062
22,CUUAAGGACUGGAUCUACUGGGUCUACCUAA,0.00239 ± 0.013
23,CUUAAGGAGUGGAUCAAGUGGGUUACCUAA,0.000352 ± 0.011

row,Sequence,pre-steady-state target cleavage rate
1,CUUAAGGAGACCUUCUACCUGGGUUACCUAA,0.000919 ± 0.014
2,CUUAAGGAGAGGAACUACUGGGUAACCUAA,0.001 ± 0.012
3,CUUAAGCUCUGGAUCUAGACGGUUACCUAA,0.00153 ± 0.0058
4,CUUAAGGAGUAGAUCUACUGGGUUACCUAA,0.00155 ± 0.011
5,CUUAAGGAGAGGAUCUACACGGUUACCUAA,0.000672 ± 0.01
6,CUUAAGGAGACCUUCUUCUGGGAUACCUAA,0.00073 ± 0.019
7,CUUAAGGACAGGAACUACUGGGUUACCUAA,0.00366 ± 0.013
8,CUUAAGGAGAGGAUCUACUGGGUUCACCUAA,0.00293 ± 0.0035
9,CUUAAGGAGACCUUGUUCUGGGUUACCUAA,0.000716 ± 0.018
10,CUUAAGGAGAGGAUCUACUGGGUGUACCUAA,0.00182 ± 0.0098
11,CUUAAGGAGACCAUCUACUGGGUUUACCUAA,0.00108 ± 0.0063
12,CUUAAGGAGACCAUCUACAGGCUUACCUAA,0.00183 ± 0.0075
13,CUUAAGGAGACGAUGUACUGGGUUUCCUAA,0.000456 ± 0.018
14,CUUAAGGUCAGGAUCUACUGGGUUACCUUA,0.0166 ± 0.0094
15,CUUAAGGAGACCUUCUCCUGGGUUACCUAA,0.000629 ± 0.016
16,CUUAAGGAGAGCAUCUAGUGGGUUACCUAA,0.00422 ± 0.0049
17,CUUAAGGAGACCUAGUACUCGGUUACGUAA,0.000222 ± 0.031
18,CUUAAGGAGACGAUCUACUGGCUUACCUUA,0.000471 ± 0.017
19,CUUAAGGACUGGAUCAUCUGGGUUACCUAA,0.00673 ± 0.01
20,CUUAAGGAGUGGUUCUACUGGCUUACCUAA,0.000615 ± 0.022
21,CUUAAGGAGACCACUCUACUGGGUUACCUAA,0.000919 ± 0.01
22,CUUAAGGAGUGGAUUACUGGGUUACCUAA,0.000954 ± 0.015
